{
  "sequences": {"note": "Chains of the proteins cited; added tags and fusions are not shown.", "UniProt Q14457": "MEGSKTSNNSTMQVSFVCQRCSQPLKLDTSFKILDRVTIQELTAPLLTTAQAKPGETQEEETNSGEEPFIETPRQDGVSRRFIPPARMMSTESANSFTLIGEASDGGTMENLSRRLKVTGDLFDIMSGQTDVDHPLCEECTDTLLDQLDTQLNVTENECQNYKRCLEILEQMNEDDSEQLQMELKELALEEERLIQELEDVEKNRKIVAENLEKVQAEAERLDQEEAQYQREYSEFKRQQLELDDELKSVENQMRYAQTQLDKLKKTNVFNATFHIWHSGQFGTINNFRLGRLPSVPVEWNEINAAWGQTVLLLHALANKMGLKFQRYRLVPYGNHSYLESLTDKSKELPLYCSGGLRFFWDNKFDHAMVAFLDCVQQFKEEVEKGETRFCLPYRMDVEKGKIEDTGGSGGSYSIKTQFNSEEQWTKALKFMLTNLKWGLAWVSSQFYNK"},
  "source": "paper PMC10860303",
  "molecular_target": "T1, Transforming growth factor beta regulator 4 (human (endogenous in Huh7)) (UniProt Q969Z0)",
  "T1 sequence": "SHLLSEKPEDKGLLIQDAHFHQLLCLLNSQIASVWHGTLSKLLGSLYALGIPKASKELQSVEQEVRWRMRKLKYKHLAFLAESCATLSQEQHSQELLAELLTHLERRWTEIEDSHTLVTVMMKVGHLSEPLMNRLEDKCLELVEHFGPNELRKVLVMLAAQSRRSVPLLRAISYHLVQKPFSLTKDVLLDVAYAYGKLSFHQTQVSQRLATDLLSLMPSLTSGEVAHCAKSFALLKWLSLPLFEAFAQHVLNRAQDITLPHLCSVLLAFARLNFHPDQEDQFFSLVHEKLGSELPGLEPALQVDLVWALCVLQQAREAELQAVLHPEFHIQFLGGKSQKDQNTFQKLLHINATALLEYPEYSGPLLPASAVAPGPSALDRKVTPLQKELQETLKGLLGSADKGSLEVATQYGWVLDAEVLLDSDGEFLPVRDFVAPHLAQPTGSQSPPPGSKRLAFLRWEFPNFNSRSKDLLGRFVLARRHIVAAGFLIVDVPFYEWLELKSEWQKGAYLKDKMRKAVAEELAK",
  "experiment": "co-IP; Huh7 cells lysed in RIPA; agarose beads and TBRG4 antibody, shaken overnight; Western blot; the results call it a reciprocal Co-IP",
  "note": "No constants are given. Whether binding was seen depends on the method and setting. Binding seen in cells or lysates may run through a third protein. Some results given as binding are weak or reduced against the parent protein; the word gives no strength.",
  "data": [
    {"substance": "Beclin1 (from UniProt Q14457 1-450)", "values": [
      {"measurement": "binding", "value": "binds"}
    ]}
  ]
}
